Measurements reported in patent publication US7291641B2, “Derivatives of heterocycles with 5 members, their preparation and their use as medicaments” (Societe de Conseils de Recherches et d'Applications …, priority 1999, dated 2007).
Some results were stated once for a whole list of compounds, not compound by compound.

These molecules were tested on voltage-dependent sodium channels. Details: homogenate of rat cortex; [3H] batrachotoxin-A 20-alpha benzoate 5 nM; 1 hour 30 minutes at 25° C.; read-out: IC50 on the bond of tritiated batrachotoxin on the voltage-dependent sodium channels.
Format: binding
In the case of “3,3-dimethylbutyl 2-[4-(3,5-ditert-butyl-4-hydroxyphenyl)-1H-imidazol-2-yl]ethylcarbamate [Example 387]”, the IC50 is reported as ≤ 1000 nM.
In the case of `CCCCCCC(c1nc(-c2ccccc2)c[nH]1)N(CCCCCC)CCCCCC` (racemic) [Example 43, (R,S)-N,N-dihexyl-1-(4-phenyl-1H-imidazol-2-yl)-1-heptanamine], the IC50 is reported as ≤ 1000 nM.
`CCCCC(NC(=O)OC(C)(C)C)c1nc(-c2ccc(-c3ccccc3)cc2)c[nH]1` (racemic) [Example 59, (R,S)-4-(2-{1-[(tert-butoxycarbonyl)amino]pentyl}-1H-imidazol-4-yl)-1,1′-biphenyl] was tested, and the IC50 was ≤ 1000 nM.
With `CCCCC(NCc1ccccc1)c1nc(-c2ccc(-c3ccccc3)cc2)c[nH]1` (racemic) [Example 60, (R,S)—N-benzyl-1-(4-[1,1′-biphenyl]4-yl-1H-imidazol-2-yl)-1-pentanamine] the IC50 was ≤ 1000 nM.
`CCCCCCNC(CCCCCC)c1nc(-c2ccccc2)c[nH]1` (racemic) [Example 64, (R,S)-N-hexyl-1-(4-phenyl-1H-imidazol-2-yl)-1-heptanamine] was tested, and the IC50 was ≤ 1000 nM.
With `CCCCCC(N)c1nc(-c2ccccc2)c[nH]1` (racemic) [Example 65, (R,S)-1-(4-phenyl-1H-imidazol-2-yl)hexylamine] the IC50 was ≤ 1000 nM.
In the case of `CCCCCCC(NCc1c(Cl)cccc1Cl)c1nc(-c2ccccc2)c[nH]1` (racemic) [Example 67, (R,S)-N-(2,6-dichlorobenzyl)-1-(4-phenyl-1H-imidazol-2-yl)-1-heptanamine], the IC50 is reported as ≤ 1000 nM.
In the case of `CCCCCCC(NCc1ccc(Cl)cc1)c1nc(-c2ccccc2)c[nH]1` (racemic) [Example 68, (R,S)-N-(4-chlorobenzyl)-1-(4-phenyl-1H-imidazol-2-yl)-1-heptanamine], the IC50 is reported as ≤ 1000 nM.
For `CCCCCCC(N)c1nc(-c2cccc(OC)c2)c[nH]1` (racemic) [Example 69, (R,S)-1-[4-(3-methoxyphenyl)-1H-imidazol-2-yl]heptylamine], the IC50 was ≤ 1000 nM.
`CCCCCCC(NCc1ccccc1Cl)c1nc(-c2ccccc2)c[nH]1` (racemic) [Example 70, (R,S)-N-(2-chlorobenzyl)-1-(4-phenyl-1H-imidazol-2-yl)-1-heptanamine] was tested, and the IC50 was ≤ 1000 nM.
`CCCCCCC(NCc1ccccc1F)c1nc(-c2ccccc2)c[nH]1` (racemic) [Example 71, (R,S)-N-(2-fluorobenzyl)-1-(4-phenyl-1H-imidazol-2-yl)-1-heptanamine] was tested, and the IC50 was ≤ 1000 nM.
For `CCCCCCC(NCCCC)c1nc(-c2ccccc2)c[nH]1` (racemic) [Example 72, (R,S)-N-butyl-1-(4-phenyl-1H-imidazol-2-yl)-1-heptanamine], the IC50 was ≤ 1000 nM.
`CCCCCCC(NCCC(C)C)c1nc(-c2ccccc2)c[nH]1` (racemic) [Example 73, (R,S)-N-isopentyl-N-[1-(4-phenyl-1H-imidazol-2-yl)heptyl]amine] was tested, and the IC50 was ≤ 1000 nM.
With `CCCCCCNC(CCCCCC)c1nc(-c2cccc(Br)c2)c[nH]1` (racemic) [Example 74, (R,S)-1-[4-(3-bromophenyl)-1H-imidazol-2-yl]-N-hexyl-1-heptanamine] the IC50 was ≤ 1000 nM.
For `CCCCCCC(NCCCCC)c1nc(-c2ccccc2)c[nH]1` (racemic) [Example 75, (R,S)-N-pentyl-1-(4-phenyl-1H-imidazol-2-yl)-1-heptanamine], the IC50 was ≤ 1000 nM.
`CCCCCCC(NC1CCCCC1)c1nc(-c2ccccc2)c[nH]1` (racemic) [Example 76, (R,S)-N-[1-(4-phenyl-1H-imidazol-2-yl)heptyl]cyclohexanamine] was tested, and the IC50 was ≤ 1000 nM.
With `CCCCCCC(NCc1ccccc1)c1nc(-c2ccc(Cl)c(Cl)c2)c[nH]1` (racemic) [Example 77, (R,S)-N-benzyl-1-[4-(3,4-dichlorophenyl)-1H-imidazol-2-yl]-1-heptanamine] the IC50 was ≤ 1000 nM.
In the case of `CCCCCCC(NC1CCCC1)c1nc(-c2ccccc2)c[nH]1` (racemic) [Example 79, (R,S)-N-[1-(4-phenyl-1H-imidazol-2-yl)heptyl]cyclopentanamine], the IC50 is reported as ≤ 1000 nM.
For `CCCCCCC(NC1CCC1)c1nc(-c2ccc(F)cc2)c[nH]1` (racemic) [Example 84, (R,S)-N-{1-[4-(4-fluorophenyl)-1H-imidazol-2-yl]heptyl}-cyclobutanamine], the IC50 was ≤ 1000 nM.
With `Cn1cc(CC(N)c2nc(-c3ccccc3)c[nH]2)c2ccccc21` (racemic) [Example 92, (R,S)-2-(1-methyl-1H-indol-3-yl)-1-(4-phenyl-1H-imidazol-2-yl)ethylamine] the IC50 was ≤ 1000 nM.
For `Fc1ccc2c(CC(NCc3ccccc3)c3nc(-c4ccccc4)c[nH]3)c[nH]c2c1` (racemic) [Example 105, (R,S)-N-benzyl-2-(6-fluoro-1H-indol-3-yl)-1-(4-phenyl-1H-imidazol-2-yl)ethanamine], the IC50 was ≤ 1000 nM.
For `NC(Cc1c[nH]c2cc(Cl)ccc12)c1nc(-c2ccccc2)c[nH]1` (racemic) [Example 122, (R,S)-2-(6-chloro-1H-indol-3-yl)-1-(4-phenyl-1H-imidazol-2-yl)ethylamine], the IC50 was ≤ 1000 nM.
`NC(c1ccccc1)c1nc(-c2ccccc2)c[nH]1` (racemic) [Example 128, (R,S)-phenyl(4-phenyl-1H-imidazol-2-yl)methylamine] was tested, and the IC50 was ≤ 1000 nM.
For `c1ccc(CNC(c2ccccc2)c2nc(-c3ccccc3)c[nH]2)cc1` (racemic) [Example 133, (R,S)-N-benzyl(phenyl)(4-phenyl-1H-imidazol-2-yl)methanamine], the IC50 was ≤ 1000 nM.
In the case of `Fc1ccc(-c2c[nH]c(C(CCCC(F)(F)F)NC3CCCCC3)n2)cc1` (racemic) [Example 136, (R,S)-N-{5,5,5-trifluoro-1-[4-(4-fluorophenyl)-1H-imidazol-2-yl]pentyl}cyclohexanamine], the IC50 is reported as ≤ 1000 nM.
With `CCCCCCC(N)c1nc(-c2ccccc2)c[nH]1` (racemic) [Example 142, (R,S)-1-(4-phenyl-1H-imidazol-2-yl)heptylamine] the IC50 was ≤ 1000 nM.
With `CCCCCCC(NCc1ccccc1)c1nc(-c2ccccc2)c[nH]1` (racemic) [Example 145, (R,S)-N-benzyl-1-(4-phenyl-1H-imidazol-2-yl)-1-heptanamine] the IC50 was ≤ 1000 nM.
`CCCCC(NC(=O)OC(C)(C)C)c1nc(-c2ccccc2)c[nH]1` (racemic) [Example 174, tert-butyl (R,S)-1-(4-phenyl-1H-imidazol-2-yl)pentylcarbamate] was tested, and the IC50 was ≤ 1000 nM.
`CCCCC(N)c1nc(-c2ccc(-c3ccccc3)cc2)c[nH]1` (racemic) [Example 175, (R,S)-1-(4-[1,1′-biphenyl]-4-yl-1H-imidazol-2-yl)-1-pentanamine] was tested, and the IC50 was ≤ 1000 nM.
In the case of `CCCCC(N)c1nc(-c2ccccc2)c[nH]1` (racemic) [Example 181, (R,S)-1-(4-phenyl-1H-imidazol-2-yl)pentylamine], the IC50 is reported as ≤ 1000 nM.
`CCCCCCC(NC(=O)OC(C)(C)C)c1nc(-c2ccccc2OC)c[nH]1` (racemic) [Example 183, tert-butyl (R,S)-1-[4-(2-methoxyphenyl)-1H-imidazol-2-yl]heptylcarbamate] was tested, and the IC50 was ≤ 1000 nM.
For `CCCCCCC(N)c1nc(-c2ccc(C)cc2)c[nH]1` (racemic) [Example 184, (R,S)-1-[4-(4-methylphenyl)-1H-imidazol-2-yl]-1-heptanamine], the IC50 was ≤ 1000 nM.
For `CCCCCCC(N)c1nc(-c2ccccc2OC)c[nH]1` (racemic) [Example 185, (R,S)-1-[4-(2-methoxyphenyl)-1H-imidazol-2-yl]heptylamine], the IC50 was ≤ 1000 nM.
In the case of `CCCCC(NCc1ccccc1)c1nc(-c2ccccc2)c[nH]1` (racemic) [Example 186, (R,S)-N-benzyl-1-(4-phenyl-1H-imidazol-2-yl)-1-pentanamine], the IC50 is reported as ≤ 1000 nM.
In the case of `CCCCCCC(N)c1nc(-c2ccc(-c3ccccc3)cc2)c[nH]1` (racemic) [Example 188, (R,S)-1-(4-[1,1′-biphenyl]-4-yl-1H-imidazol-2-yl)-heptanamine], the IC50 is reported as ≤ 1000 nM.
With `CCCCCCC(N)c1nc(-c2ccc(OC)cc2)c[nH]1` (racemic) [Example 190, (R,S)-1-[4-(4-methoxyphenyl)-1H-imidazol-2-yl]heptylamine] the IC50 was ≤ 1000 nM.
In the case of `CCCCCCC(N)c1nc(-c2cccc(Br)c2)c[nH]1` (racemic) [Example 191, (R,S)-1-[4-(3-bromophenyl)-1H-imidazol-2-yl]-1-heptanamine], the IC50 is reported as ≤ 1000 nM.
For `CCCCCCC(NC(=O)OC(C)(C)C)c1nc(-c2ccc(-c3ccccc3)cc2)c[nH]1` (racemic) [Example 192, (R,S)-4-(2-{1-[(tert-butoxycarbonyl)amino]heptyl}-1H-imidazol-4-yl)-1,1′-biphenyl], the IC50 was ≤ 1000 nM.
In the case of `CCCCCCC(NCc1ccccc1)c1nc(-c2cccc(Br)c2)c[nH]1` (racemic) [Example 193, (R,S)-N-benzyl-1-[4-(3-bromophenyl)-1H-imidazol-2-yl]-1-heptanamine], the IC50 is reported as ≤ 1000 nM.
In the case of `CCCCCCC(NCc1ccccc1)c1nc(-c2ccc(-c3ccccc3)cc2)c[nH]1` (racemic) [Example 195, (R,S)-N-benzyl-1-(4-[1,1′-biphenyl]-4-yl-1H-imidazol-2-yl)-1-heptanamine], the IC50 is reported as ≤ 1000 nM.
For `CCCCCCC(NCc1ccccc1)c1nc(-c2ccc(C)cc2)c[nH]1` (racemic) [Example 200, (R,S)-N-benzyl-1-[4-(4-methylphenyl)-1H-imidazol-2-yl]-1-heptanamine], the IC50 was ≤ 1000 nM.
In the case of `CCCCCCC(NCc1ccccc1)c1nc(-c2ccccc2OC)c[nH]1` (racemic) [Example 201, (R,S)-N-benzyl-1-[4-(2-methoxyphenyl)-1H-imidazol-2-yl]-1-heptanamine], the IC50 is reported as ≤ 1000 nM.
For `CCCCCC(NCc1ccccc1)c1nc(-c2ccccc2)c[nH]1` (racemic) [Example 202, (R,S)-N-benzyl-1-(4-phenyl-1H-imidazol-2-yl)-1-hexanamine], the IC50 was ≤ 1000 nM.
For `CCCCCCC(N)c1nc(-c2ccc(C#N)cc2)c[nH]1` (racemic) [Example 205, (R,S)-4-[2-(1-aminoheptyl)-1H-imidazol-4-yl]benzonitrile], the IC50 was ≤ 1000 nM.
`CCCCCCC(N)c1nc(-c2ccc(Br)cc2)c[nH]1` (racemic) [Example 206, (R,S)-1-[4-(4-bromophenyl)-1H-imidazol-2-yl]-1-heptanamine] was tested, and the IC50 was ≤ 1000 nM.
With `CCCCCCC(N)c1nc(-c2cc(C(C)(C)C)c(O)c(C(C)(C)C)c2)c[nH]1` (racemic) [Example 210, (R,S)-4-[2-(1-aminoheptyl)-1H-imidazol-4-yl]-2,6-di(tert-butyl)-phenol] the IC50 was ≤ 1000 nM.
